Measured values as given in PubChem BioAssay AID1963320 (National Center for Advancing Translational Sciences (NCATS), 2024).
About 560 (43%) of roughly 1,300 compounds were called active. Roughly 39% stayed inconclusive and do not appear here. Calls come from the whole dose curve; as a rule, active = well fitted inhibition curve with a large enough effect; inconclusive = small, poorly fitted or top-dose-only effect; inactive = flat fitted curve, though single readings scatter. The set was probably picked from earlier hits. The entries are a selection whose mix differs from that of the whole data set.

By UniProt entry, the sequences of proteins in these tests, tags left out.
UniProt P08659, whole entry, looked up: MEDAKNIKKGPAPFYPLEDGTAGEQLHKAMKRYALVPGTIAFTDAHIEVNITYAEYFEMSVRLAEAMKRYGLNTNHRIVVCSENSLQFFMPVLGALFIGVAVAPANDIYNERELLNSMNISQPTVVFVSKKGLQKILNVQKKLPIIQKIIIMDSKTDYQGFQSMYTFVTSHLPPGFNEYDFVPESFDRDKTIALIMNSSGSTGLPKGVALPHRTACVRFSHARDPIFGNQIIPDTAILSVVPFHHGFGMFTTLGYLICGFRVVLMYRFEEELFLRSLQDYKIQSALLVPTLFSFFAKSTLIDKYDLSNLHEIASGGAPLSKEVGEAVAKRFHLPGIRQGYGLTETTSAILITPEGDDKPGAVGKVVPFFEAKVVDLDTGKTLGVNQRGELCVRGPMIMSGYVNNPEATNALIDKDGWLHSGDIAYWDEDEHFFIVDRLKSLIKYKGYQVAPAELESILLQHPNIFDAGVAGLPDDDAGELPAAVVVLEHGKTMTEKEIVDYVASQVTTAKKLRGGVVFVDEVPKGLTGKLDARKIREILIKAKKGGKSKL

The compounds below were run against Luciferin 4-monooxygenase (Photinus pyralis) (UniProt P08659) (assay: Firefly luciferase (FLuc-C-HiBiT) enzymatic inhibition screen - Functional assay). Details: purified FLuc-C-HiBiT enzyme, luciferin luminescence; at 49.3 µM (top of the series).
From the text: PI: James Inglese Ph.D. National Center for Advancing Translational Sciences (NCATS), National Institute of Health (NIH), Maryland Discovery and optimization of novel protein-binding ligands underlies many of the methods and applications of biology, drug discovery, clinical diagnostics, and environmental toxicology. Assays for detecting the interaction of, for example, a molecule with a macromolecular target also referred to here as the target of interest (TOI) is dependent on a compatible output technology. Depending on the nature and knowledge surrounding the TOI, whether a receptor, enzyme, regulatory subunit or scaffold, or a sequence-defined nucleic acid folded into a complex tertiary structure, assay strategies can vary widely. Here we exploit ligand-biased changes in the structural dynamics of the target protein to control reporter alpha complementation allowing a non-competitive, non-functional, non-separation measure of ligand-target interaction. […]
1. […] Functional assay measured using CCD-based camera (ViewLux) with settings as follows: Exposure, 10 sec; Gain, High; Speed, Slow; Binning, 2X. […]
% is set by controls: 0 for no effect and ±100 for the full control effect.
Note: nearly all actives have a fitted effect of over 70% in size.

Row | SMILES | activity change, negative = inhibition
1 | CN1CCNc2cc(-c3ccc([S+](C)(=O)[O-])cc3)ncc2C1 | inactive: -8.69%
